Data taken from patent publication US20160138036A1 (SNU R AND DB FOUNDATION, published 2016).

B1: SOC1 (SUPPRESSOR OF OVEREXPRESSOR OF CONSTANS 1) transcription factor (other)
chain: MVRGKTQMKRIENATSRQVTFSKRRNGLLKKAFELSVLCDAEVSLIIFSPKGKLYEFASSNMQDTIDRYLRHTKDRVSTKPVSEENMQHLKYEAANMMKKIEQLEASKRKLLGEGIGTCSIEELQQIEQQLEKSVKCIRARKTQVFKEQIEQLKQKEKALAAENEKLSEKWGSHESEVWSNKNQESTGRGDEESSPSSEVETQLFIGLPCSSRK
modifications: 35S-Met label in the pull-down assay (in vitro translated)
notes: Full-size MADS box transcription factor; In yeast two-hybrid it was fused to GAL4 AD or BD (pGADT7/pGBKT7); In BiFC it was fused to a half of EYFP; In the pull-down it was in vitro translated from pGADT7 and 35S-labeled; also called Arabidopsis SOC1; At2g45660
B2: S-MIK truncated SOC1 form (peptide)
chain: MVRGKTQMKRIENATSRQVTFSKRRNGLLKKAFELSVLCDAEVSLIIFSPKGKLYEFASSNMQDTIDRYLRHTKDRVSTKPVSEENMQHLKYEAANMMKKIEQLEASKRKLLGEGIGTCSIEELQQIEQQLEKSVKCIRARKTQVFKEQIEQLKQKEKALAAENEKLSEK
modifications: 35S-Met label in the pull-down assay (in vitro translated)
notes: It was fused to GAL4 domain or EYFP half in yeast and BiFC assays; also called SOC1 a-siPEP

What was measured:
[1] = molecular target: the molecule itself; experiment: yeast two-hybrid (GAL4 AD/BD fusions, growth on -QD, beta-Gal)
Method: Yeast two-hybrid assays were performed using the BD Matchmaker system (Clontech, Mountain View, Calif.). The pGADT7 vector was used for GAL4 AD (activation domain) fusion, and the pGBKT7 vector was used for GAL4 BD (DNA-binding domain) fusion. The yeast strain AH109 (leu-, trp-, ade-, his-), which has chromosomally integrated reporter genes lacZ and HIS under the control of the GAL1 promoter, was used for transformation. The PCR product of SOC1 gene was digested with EcoRI and BamHI and subcloned into the pGBKT7 and pGADT7 vectors. Transformation of the AH109 cells was carried out according to the manufacturer's instruction. Colonies obtained were streaked on a medium without His, Ade, Leu, and Trp. To confirm the results of cell growth assays, β-galactosidase (β-Gal) assays were also carried out according to the system procedure.

[2] = molecular target: B1; experiment: BiFC (split EYFP fusions) in Arabidopsis protoplasts
Method: BiFC assays were carried out as described previously (Hong et al., J. Biol. Chem. 286, 1659-1668, 2011). A full-size SOC1 gene was fused in-frame to the 5′ end of a gene sequence encoding the C-terminal half of EYFP in the pSATN-cEYFP-C1 vector (E3082). Truncated SOC1 gene sequences were fused in-frame to the 5′ end of a gene sequence encoding the N-terminal half of EYFP in the pSATN-nEYFP-C1 vector (E3081). The expression constructs were cotransformed into Arabidopsis protoplasts. Expression of the fusion constructs was monitored by fluorescence microscopy using a Zeiss LSM510 confocal microscope (Carl Zeiss MicroImaging GmbH, Jena, Germany). The BdSOC1 gene constructs were prepared similar to the Arabidopsis SOC1 gene constructs and transiently expressed in Brachypodium protoplasts.

Binder | binding result [1] | binding result [2]
B1 | binds | –
B2 | – | binds
